Reference: paper doi:10.1101/2023.11.20.567952
Numbering of substitutions follows the chain as printed. Numbers in names are those of the source. No constants are given. Whether binding was seen depends on the method and setting. For part of these data: Binding calls can cover weak binding; strength is not graded here. Sequences can lack the tags named with a protein. For part of these data: Binding seen in cells or lysates may run through a third protein.

B1: CTDNEP1 (untagged, wild type) (enzyme, UniProt O95476 1-244)
chain: MMRTQCLLGLRTFVAFAAKLWSFFIYLLRRQIRTVIQYQTVRYDILPLSPVSRNRLAQVKRKILVLDLDETLIHSHHDGVLRPTVRPGTPPDFILKVVIDKHPVRFFVHKRPHVDFFLEVVSQWYELVVFTASMEIYGSAVADKLDNSRSILKRRYYRQHCTLELGSYIKDLSVVHSDLSSIVILDNSPGAYRSHPDNAIPIKSWFSDPSDTALLNLLPMLDALRFTADVRSVLSRNLHQHRLW
B2: CTDNEP1 D67E (untagged) (enzyme, UniProt O95476 1-244)
chain: B1 chain with D67E
B3: CTDNEP1ΔAH (untagged) (domain or fragment, UniProt O95476 40-244)
chain: TVRYDILPLSPVSRNRLAQVKRKILVLDLDETLIHSHHDGVLRPTVRPGTPPDFILKVVIDKHPVRFFVHKRPHVDFFLEVVSQWYELVVFTASMEIYGSAVADKLDNSRSILKRRYYRQHCTLELGSYIKDLSVVHSDLSSIVILDNSPGAYRSHPDNAIPIKSWFSDPSDTALLNLLPMLDALRFTADVRSVLSRNLHQHRLW

What was measured:
[1] = biological target: T1, His6-MBP-TEV-CTDNEP1ΔAHS232D (human) (UniProt O95476); experiment: condition: 12 μM MBP-CTDNEP1ΔAHS232D with 53 μM NEP1R1; SEC; 12 μM His6-MBP-CTDNEP1ΔAH (or S232D) mixed with 53 μM NEP1R1, on ice 3 h, Superdex200 increase 10/300; fractions analysed by pNPP assay and SDS-PAGE; both purified
T1 sequence: B3 chain with S193D

[2] = biological target: T2, His6-MBP-TEV-CTDNEP1ΔAH (human) (UniProt O95476); experiment: SEC; 12 μM His6-MBP-CTDNEP1ΔAH (or S232D) mixed with 53 μM NEP1R1, on ice 3 h, Superdex200 increase 10/300; fractions analysed by pNPP assay and SDS-PAGE; both purified
T2 sequence: B3 chain

[3] = biological target: T3, CTDNEP1ΔAH as it stands in the crystallised CTDNEP1ΔAH-linker-sNEP1R1-His6 fusion (human) (UniProt O95476); experiment: crystal structure; CTDNEP1ΔAH-sNEP1R1-His6 fusion, hanging drop, 5.5 – 6 % PEG3350, 0.2 M lithium citrate, 0.3 – 0.4 % CHAPS; apo and Mg2+-soaked crystals; both purified
T3 sequence: B3 chain

[4] = biological target: His6-MBP-TEV-NEP1R1 (human); experiment: co-purification after co-expression (Ni-NTA, amylose, SEC); His6-MBP-NEP1R1 co-expressed with untagged CTDNEP1 forms in E. coli; membranes extracted with 1 % DDM; Ni-NTA, amylose resin, Superdex 200 in 0.02 % GDN; 4 °C; SDS-PAGE

Molecule | binding [4] | other results
NEP1R1 (purified separately) (human) |  | binding [1]: no binding; binding [2]: binds
sNEP1R1 as it stands in the crystallised CTDNEP1ΔAH-linker-sNEP1R1-His6 fusion (human) (domain or fragment) |  | binding [3]: binds
B1 | binds | 
B2 | binds | 
B3 | binds | 
